Drawing on US20230257472A1, this text covers binding for one molecule.

These are yes or no findings as the source states them, for the method shown. Some binding calls cover weakened binding; strength is not graded here.

Assay [1] deals with T1, human CD70 on cells (CD70-positive 786-O cells, Raji cells, CHO-S cells expressing human full-length CD70, U266 cells) (human) (UniProt P32970).
T1 sequence (looked up): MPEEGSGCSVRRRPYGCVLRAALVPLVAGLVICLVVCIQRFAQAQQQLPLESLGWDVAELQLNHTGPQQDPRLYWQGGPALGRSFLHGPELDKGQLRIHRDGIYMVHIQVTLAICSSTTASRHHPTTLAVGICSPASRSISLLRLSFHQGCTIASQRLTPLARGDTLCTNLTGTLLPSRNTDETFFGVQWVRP
Nature of the assay: flow cytometry on CD70-positive 786-O cells, Alexa Fluor 488 goat anti-human (H+L) detection. Background: Flow cytometry measures light scatter and fluorescence of single cells or particles in a stream.

In assay [2] the target is T1, human CD70 on cells (CD70-positive 786-O cells, Raji cells, CHO-S cells expressing human full-length CD70, U266 cells) (human). Nature of the assay: flow cytometry on CD70-positive Raji cells, Alexa Fluor 488 goat anti-human (H+L) detection.

B1: 41D12 (afuc) (antibody, human IgG1, lambda, V domains shown)
VH: EVQLVESGGGLVQPGGSLRLSCAASGFTFSVYYMNWVRQAPGKGLEWVSDINNEGGTTYYADSVKGRFTISRDNSKNSLYLQMNSLRAEDTAVYYCARDAGYSNHVPIFDSWGQGTLVTVSS
VL: QAVVTQEPSLTVSPGGTVTLTCGLKSGSVTSDNFPTWYQQTPGQAPRLLIYNTNTRHSGVPDRFSGSILGNKAALTITGAQADDEAEYFCALFISNPSVEFGGGTQLTVLG
modifications: non-fucosylated (heavy chain not modified by fucosylation)
With B1, the binding entry in assay [1] and in assay [2] was “binds” each time.
